The record followed here is patent US20180118806A1 (MIT, published 2018).

The chains behind the UniProt entries cited, without tags or fusion partners. Residues count along the entry.
UniProt P13501, residues 24-91: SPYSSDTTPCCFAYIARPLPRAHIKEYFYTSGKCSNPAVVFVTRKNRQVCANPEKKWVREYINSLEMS

Results are given in words; binding and its absence hold for the method and conditions named. Some binding calls cover weakened binding; strength is not graded here.

For assay [1], the target named is Rantes (CCL5) (UniProt P13501). Description: yeast 2-hybrid screen and yeast mating selection.
In assay [2] the target is Rantes (CCL5) (UniProt P13501). Description: MST, dye-labelled variant at 5 nM, Rantes titrated.

B1: SZ185a = CCR5QTY(185a) (receptor)
chain: MDYQVSSPIYDINYYTSEPCQKINVKQIAARQQPPQYSQTFTFGYTNMQTTQTQTNCKRLKSMTDIYLQNQAISDQYYQFWAPYNTVQQLNTFQEFFGLNNCSSSNRLDQAMQTTETQGMTHCCTNPIIYAFTGEKFRNYLLVFFQKHIAKRFCKCCSIFQQEAPERASSVYTRSTGEQEISVGL
Turning to B1, the binding result with Rantes (CCL5) [1] was “binds”.

B2: SZ186a = CCR5QTY(186a) (receptor)
chain: MDYQVSSPIYDINYYTSEPCQKINVKQIAARQQPPQYSQTFTFGFTGNMQTTQTQINCKRLKSMTDIYQQNQATSDQYYQYWAPYNTVQQQNTFQEFFGLNNCSSSNRLDQAMQVTETQGMTHCCTNPTIYAYVGEKFRNYLLVFFQKHIAKRFCKCCSIFQQEAPERASSVYTRSTGEQEISVGL
Take B2: in the assay with Rantes (CCL5) [1], the binding entry is given as “binds”.

B3: SZ190b = CCR5QTY(190b) (receptor)
chain: MDYQVSSPIYDINYYTSEPCQKINVKQIAARLQPPQYSQTFTFGFTGNMQTTQTQINCKRLKSMTDIYLQNQAISDQFFQQTTPYWAPYNTVQQQNTFQEFFGLNNCSSSNRLDQAMQVTETQGMTHCCTNPTIYAFVGEKFRNYLLVFFQKHIAKRFCKCCSIFQQEAPERASSVYTRSTGEQEISVGL
modifications: labelled with the dye DY647P1 in the MST assay (site not stated)
notes: Partial QTY variant of CCR5, 190 aa; Dye-labelled in MST; in the yeast 2-hybrid screen the fusion partner is not described; also called 5NA-17: Contig1; CCR5_SZ190b DY647P1
Take B3: the binding entry with Rantes (CCL5) [1] and with Rantes (CCL5) [2] was “binds” throughout.

B4: SZ190c = CCR5QTY(190c) (receptor)
chain: MDYQVSSPIYDINYYTSEPCQKINVKQIAARLQPPQYSQTFTFGYTGNMQVTQTQINCKRLKSMTDIYLQNQAISDQFFQQTTPYWAPYNTVQQQNTFQEFFGLNNCSSSNRLDQAMQVTETLGMTHCCTNPIIYAYTGEKFRNYLLVFFQKHIAKRFCKCCSIFQQEAPERASSVYTRSTGEQEISVGL
Take B4: the binding result with Rantes (CCL5) [1] is on record as “binds”.

B5: SZ190d CCR5QTY(190d) (receptor)
chain: MDYQVSSPIYDINYYTSEPCQKINVKQIAARLQPPQYSQTFTFGFTGNMQTTQTQINCKRLKSMTDIYLQNQAISDQYYQQTTPYWAPYNTVQQQNTFQEFFGLNNCSSSNRLDQAMQVTETLGMTHCCTNPIIYAFTGEKFRNYLLVFFQKHIAKRFCKCCSIFQQEAPERASSVYTRSTGEQEISVGL
Regarding B5, the binding entry with Rantes (CCL5) [1] is on record as “binds”.

B6: SZ190a = CCR5QTY(190a) (receptor)
chain: MDYQVSSPIYDINYYTSEPCQKINVKQIAARQQPPQYSQTYTFGFTGNMQTTQTQINCKRLKSMTDIYLQNQAISDQYFQQTTPYWAPYNTVQQLNTFQEFFGLNNCSSSNRLDQAMQTTETQGMTHCCINPIIYAFVGEKFRNYLLVFFQKHIAKRFCKCCSIFQQEAPERASSVYTRSTGEQEISVGL
With B6, in the assay with Rantes (CCL5) [1], the binding result is on record as “binds”.

B7: SZ162a = CCR5QTY(162a) (receptor)
chain: MDYQVSSPIYDINYYTSEPCQKINVKQIAARQQPPQYSQTYTFGYTGNMQTTQTQINCKRLKSMTDIYLQNQAISDQFFQQTTPFWAHYAAAQWDFGNTMCQQQTGQYFTGEKFRNYLLVFFQKHIAKRFCKCCSIFQQEAPERASSVYTRSTGEQEISVGL
Take B7: the binding result in the assay with Rantes (CCL5) [1] was “binds”.

B8: SZ352a = CCR5QTY(352a) (receptor)
chain: MDYQVSSPIYDINYYTSEPCQKINVKQIAARQQPPQYSQTFTYGFTGNMQTTQTQINCKRLKSMTDIYLQNQAISDQYYQQTTPYWAHYAAAQWDFGNTMCQQQTGQYFTGYYSGTYYTTQQTTDRYLAVVHAVFALKARTTTYGTTTSTTTWTTATYASQPGTTYTRSQKEGLHYTCSSHFPYSQYQFWKNFQTLKITIQGQVQPQQTMVTCYSGTQKTLLRCRNEKKRHRAVRQTFTTMTTYYQYWAPYNTTQQLNTFQEFFGLNNCSSSNRLDQAMQVTETQGMTHCCTNPTIYAYVGEKFRNYLLVFFQKHIAKRFCKCCSIFQQEAPERASSVYTRSTGEQEISVGL
modifications: labelled with a dye in the MST assay (dye and site not stated for this variant)
notes: Full-length (352 aa) QTY variant of CCR5, used as control in MST; also called CC15-22; full-length (352 aa) CCR5^QTY variant
As for B8, in the assay with Rantes (CCL5) [1], the binding result is “binds”.

B9: SZ218a = CCR5QTY(218a) (receptor)
chain: MDYQVSSPIYDINYYTSEPCQKINVKQIAARQQPPQYSQTYTFGFTGNMQTTQTQINCKRLKSMTDIYLQNQAISDQFFQQTTPFWAHYAAAQWDFGNTMCQQQTGQYFTGYYSGTYYTTQQLNTFQEFFGLNNCSSSNRLDQAMQTTETQGMTHCCINPTTYAYVGEKFRNYLLVFFQKHIAKRFCKCCSIFQQEAPERASSVYTRSTGEQEISVGL
modifications: labelled with the dye DY647P1 in the MST assay (site not stated)
notes: Dye-labelled in MST; fusion partner in yeast 2-hybrid not described; also called 5NA-43; CCR5_SZ218a DY647P1
With B9, the binding result in the assay with Rantes (CCL5) [1] and with Rantes (CCL5) [2] was “binds” in each case.
